Laboratory results published in patent publication US20250297028A1, “TREATMENT OF RENAL CANCER USING A COMBINATION OF AN ANTI-PD-1 ANTIBODY AND ANOTHER ANTI-CANCER AGENT” (BRISTOL-MYERS SQUIBB COMPANY, priority 2014, published 2025).
For some assays here: At least one structure is not confirmed: it was looked up by name or label, or the drawing left a doubt. Some entries share one result that the patent states for a list of compounds.

Legend:
[1] = system: murine renal carcinoma (Renca) tumor; assay: Efficacy study in Renca murine RCC tumor model; assay type: in vivo, mouse; conditions: FIG. 2
Description: Female 8-12 weeks old Balb/c and C57/BL6 mice (Harlan Laboratories, Federick, MD) were used in all studies. Mice were housed in sterile microisolator cages and administered sterile food and water ad libitum, unless otherwise specified.
The murine renal carcinoma (Renca) and murine colon adenocarcinoma (CT-26) tumor cell lines were maintained in vitro for less than 10 passages.
Tumor cells were implanted subcutaneously (SC). When the mean tumor volume reached about 100 mm^3, mice were randomized into groups of 8 animals. Vehicle (control), sunitinib (120 mg/kg) or sorafenib (200 mg/kg) was orally administered once daily for 14 days (QD×14, PO). MAb 4H2 was administered at 10 mg/kg every 4 days for a total of 4 treatments (Q4D×4) intraperitoneally (IP). Tumors were measured twice weekly, and the tumor volume was calculated as length×(width^2/2).

[2] = system: tumor-infiltrating immune cells in Renca tumors; assay: Immune cell infiltration of Renca tumors (immunohistochemistry, flow cytometry); assay type: in vivo, mouse; conditions: versus control group
Protocol: Immunohistochemistry and flow cytometry analyses were used to assess immune cell infiltration of tumors.
Frozen sections were fixed in an acetone/methanol mix and rinsed in phosphate-buffered saline (PBS). Sections were blocked for endogenous peroxidase and the primary antibodies (anti-CD8, anti-CD4, anti-FoxP3, and anti-PD-L1) were added and incubated overnight. Chromogenic development was done using a brown polymer-based detection system (Biocare Medical), with hematoxylin used as a blue counter stain for visualization of cellular nuclei.
Tumor-infiltrating immune cells were isolated and prepared as a single-cell suspension, then stained and analyzed via flow cytometry for expression of T-cell subsets (regulatory and activated) and myeloid cells (i.e., for expression of CD3, CD4, CD8, FoxP3, CD25, and CD69).

[3] = system: renal cell carcinoma (RCC); conditions: cited from earlier work

## CNC(=O)c1cc(Oc2ccc(NC(=O)Nc3ccc(Cl)c(C(F)(F)F)c3)cc2)ccn1 [Sorafenib]
[1]
  time taken for the tumor to reach a volume of 500 mm^3: 19 to 34 days

## CCN(CC)CCNC(=O)c1c(C)[nH]c(/C=C2\C(=O)Nc3ccc(F)cc32)c1C [Sunitinib]
[1]
  time taken for the tumor to reach a volume of 500 mm^3: 19 to 34 days
[2]
  infiltration of CD4+ and CD8+ T cells into tumor (IHC): influx of CD4^+ and CD8^+ T cells predominantly to the periphery and along the vasculature

## Cc1ccc(Nc2nccc(N(C)c3ccc4c(C)n(C)nc4c3)n2)cc1S(N)(=O)=O [pazopanib, Pazopanib]
[3]; monotherapy, RCC
  historical response rate (ORR), TKI alone: about 30%

## IFNα
[3]; advanced or metastatic RCC, cytokine treatment
  reported objective response rates (ORRs): 5-27%
